Reference: patent US20020188202A1, “Method of diagnosis and treatment and related compositions and apparatus” (priority 1996, published 2002)
At least one compound was matched to its structure with a doubt left.

System: patients with cerebral vasospasm
Assay: Vasoactive medications tried on Applicant's patients with vasospasm, monitored by Transcranial Doppler (TCD), exam and symptoms
Conditions: qualitative rating in Applicant's patient population (tend to be the most severe cases)

Row | Structure (SMILES) | effectiveness in treating the vasospasm
1 | COCCOC(=O)C1=C(C)NC(C)=C(C(=O)OC(C)C)C1c1cccc([N+](=O)[O-])c1 (stereo not drawn) [Nimodopine] | less effective
2 | CCOC(=O)C1=C(C)NC(C)=C(C(=O)OC)C1c1cccc(Cl)c1Cl (stereo not drawn) [Plendil, Felodipine] | slightly milder than Dynacirc (Isradapine) and has been effective in those that could not tolerate Dynacirc
3 | COC(=O)C1=C(C)NC(C)=C(C(=O)OCC(C)C)C1c1ccccc1[N+](=O)[O-] (stereo not drawn) [Sular, Nisoldipine] | slightly milder than Dynacirc (Isradapine) and has been effective in those that could not tolerate Dynacirc
